Measurements taken from article PMC11988680.
Results are given in words; binding and its absence hold for the method and conditions named. In cells and extracts the contact can be indirect. Some results given as binding are weak or reduced against the parent protein; the word gives no strength.

Molecular target: T1, atypical protein kinase C iota (PKC-ι) (human (endogenous in HEY-T30 and ES-2)) (UniProt P41743)
T1 sequence: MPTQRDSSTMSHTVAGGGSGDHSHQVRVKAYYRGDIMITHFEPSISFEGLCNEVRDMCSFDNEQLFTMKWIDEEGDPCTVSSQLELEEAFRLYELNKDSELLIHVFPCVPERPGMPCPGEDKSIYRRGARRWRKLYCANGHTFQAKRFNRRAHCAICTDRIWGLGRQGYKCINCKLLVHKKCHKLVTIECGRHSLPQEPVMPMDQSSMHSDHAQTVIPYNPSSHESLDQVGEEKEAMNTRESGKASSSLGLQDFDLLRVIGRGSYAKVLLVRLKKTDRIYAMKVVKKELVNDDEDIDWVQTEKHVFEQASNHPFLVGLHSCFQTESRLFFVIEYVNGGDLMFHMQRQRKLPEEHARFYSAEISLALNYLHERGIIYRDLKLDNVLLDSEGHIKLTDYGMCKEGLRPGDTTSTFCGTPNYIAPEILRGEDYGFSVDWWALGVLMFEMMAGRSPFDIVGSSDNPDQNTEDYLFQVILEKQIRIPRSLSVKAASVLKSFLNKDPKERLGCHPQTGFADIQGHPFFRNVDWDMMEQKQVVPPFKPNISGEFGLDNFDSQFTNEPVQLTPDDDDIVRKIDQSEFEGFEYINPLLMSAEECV
Assay: co-IP; PKC-ι immunoprecipitated from 1000 µg of protein sample of each cell line with agarose-conjugated PKC-ι-specific antibody, overnight gentle rocking; pellet blotted with p53 antibody; beads without protein sample as negative control

binding: binds
Substance: wild-type p53 (WTp53) (from UniProt P04637 1-393)
